Laboratory results taken from article PMC6553528, “An Interaction Network of the Human SEPT9 Established by Quantitative Mass Spectrometry” (G3: Genes|Genomes|Genetics, 2019).
Results are given in words; binding and its absence hold for the method and conditions named. Binding seen in cells or lysates may run through a third protein.

Target: T1, TAP-SEPT9_i1 (human), Q9UHD8
T1 chain: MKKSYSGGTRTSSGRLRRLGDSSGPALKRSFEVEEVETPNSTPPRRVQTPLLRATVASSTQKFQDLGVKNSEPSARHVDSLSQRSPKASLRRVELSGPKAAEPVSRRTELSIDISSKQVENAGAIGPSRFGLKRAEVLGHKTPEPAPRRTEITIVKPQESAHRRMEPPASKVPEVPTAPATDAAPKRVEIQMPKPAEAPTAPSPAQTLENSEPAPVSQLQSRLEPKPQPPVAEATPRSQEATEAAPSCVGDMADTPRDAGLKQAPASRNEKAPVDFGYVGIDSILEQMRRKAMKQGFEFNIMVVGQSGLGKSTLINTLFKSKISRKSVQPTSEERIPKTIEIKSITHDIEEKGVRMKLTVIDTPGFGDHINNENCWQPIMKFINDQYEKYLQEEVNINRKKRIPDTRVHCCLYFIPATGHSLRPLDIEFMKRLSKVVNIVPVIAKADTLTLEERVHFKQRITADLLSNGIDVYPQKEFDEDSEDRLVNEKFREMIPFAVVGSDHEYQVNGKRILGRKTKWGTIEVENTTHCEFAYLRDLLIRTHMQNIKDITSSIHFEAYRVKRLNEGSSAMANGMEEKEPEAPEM
Experiment: co-IP; affinity purification on human IgG-Sepharose from 1306 fibroblast lysate; Western blot of the steps with anti-ProteinA, anti-GFP or anti-SEPT9
Settings: remark: other sources report otherwise

B1: endogenous SEPT9, Q9UHD8 1-586 (protein)
chain: MKKSYSGGTRTSSGRLRRLGDSSGPALKRSFEVEEVETPNSTPPRRVQTPLLRATVASSTQKFQDLGVKNSEPSARHVDSLSQRSPKASLRRVELSGPKAAEPVSRRTELSIDISSKQVENAGAIGPSRFGLKRAEVLGHKTPEPAPRRTEITIVKPQESAHRRMEPPASKVPEVPTAPATDAAPKRVEIQMPKPAEAPTAPSPAQTLENSEPAPVSQLQSRLEPKPQPPVAEATPRSQEATEAAPSCVGDMADTPRDAGLKQAPASRNEKAPVDFGYVGIDSILEQMRRKAMKQGFEFNIMVVGQSGLGKSTLINTLFKSKISRKSVQPTSEERIPKTIEIKSITHDIEEKGVRMKLTVIDTPGFGDHINNENCWQPIMKFINDQYEKYLQEEVNINRKKRIPDTRVHCCLYFIPATGHSLRPLDIEFMKRLSKVVNIVPVIAKADTLTLEERVHFKQRITADLLSNGIDVYPQKEFDEDSEDRLVNEKFREMIPFAVVGSDHEYQVNGKRILGRKTKWGTIEVENTTHCEFAYLRDLLIRTHMQNIKDITSSIHFEAYRVKRLNEGSSAMANGMEEKEPEAPEM
binding: no binding
